Measurements published in the supplement of paper PMC10331698.
± gives the standard deviation of the averaged measurements. Most values lie at the level of the controls, where differences are scatter.

Legend:
Assay in all cases: level (log10 ratio to DMSO vehicle control); higher = higher biomarker level / cell amount than vehicle control
[1] = compound: OCC(F)(F)C(F)(F)C(F)(F)C(F)(F)C(F)(F)C(F)(F)C(F)(F)C(F)(F)C(F)(F)C(F)(F)C(F)(F)F [11:1 Fluorotelomer alcohol]; details: in DMSO
Method: (§1)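 BioMAP Diversity Plus panel of 12 human primary cell co-culture systems (3C, 4H, LPS, SAg, BT, BF4T, BE3C, CASM3C, HDF3CGF, KF3CT, MyoF, Mphg). Compounds were added 1 h before stimulation and left for 24 h (MyoF 48 h; BT 72 h for soluble read-outs or 6 d for IgG). Biomarkers were read by ELISA, cytotoxicity by SRB, PBMC viability and proliferation by Alamar Blue. Each well value was divided by the mean of 8 DMSO control wells on the same plate and log10 transformed; duplicate blinded samples were tested at 4 concentrations.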

[2] = compound: C=C(C)C(=O)OCC(F)(F)C(F)(F)C(F)(F)F [2,2,3,3,4,4,4-Heptafluorobutyl methacrylate]; details: 2200 nM; in DMSO
Method: as §1

[3] = compound: O=C(O)C(F)(F)OC(F)(F)C(F)(F)OC(F)(F)C(=O)O [Perfluoro-3,6-dioxaoctane-1,8-dioic acid]; details: 2200 nM; in DMSO
Method: as §1

[4] = compound: FC(F)C(F)(F)COCC1CO1 [((2,2,3,3-Tetrafluoropropoxy)methyl)oxirane]; details: 2200 nM; in DMSO
Method: as §1

[5] = compound: O=S(=O)(Cl)C(F)(F)C(F)(F)C(F)(F)C(F)(F)C(F)(F)C(F)(F)C(F)(F)C(F)(F)F [Perfluoro-1-octanesulfonyl chloride]; details: 2200 nM; in DMSO
Method: as §1

Perfluoroundecanoic acid = compound: O=C(O)C(F)(F)C(F)(F)C(F)(F)C(F)(F)C(F)(F)C(F)(F)C(F)(F)C(F)(F)C(F)(F)C(F)(F)F [Perfluoroundecanoic acid]; details: in DMSO
Method: as §1

[6] = compound: OCCC(F)(F)C(F)(F)C(F)(F)C(F)(F)C(F)(F)C(F)(F)C(F)(F)C(F)(F)F [8:2 Fluorotelomer alcohol]; details: 2200 nM; in DMSO
Method: as §1

[7] = compound: O=C(O)C(F)(F)OC(F)(F)C(F)(F)OC(F)(F)C(F)(F)C(F)(F)C(F)(F)F [Perfluoro-3,6-dioxadecanoic acid]; details: 2200 nM; in DMSO
Method: as §1

[8] = compound: O=C(O)C=CC(F)(C(F)(F)F)C(F)(F)F [3-(Perfluoroisopropyl)-2-propenoic acid]; details: in DMSO
Method: as §1

[9] = compound: O=C(O)C(F)(F)C(F)(F)C(F)(F)C(F)(F)C(F)(F)C(F)(F)C(F)(F)C(F)F [9-H-Perfluorononanoic acid]; details: 2200 nM; in DMSO
Method: as §1

[10] = compound: FC(F)(F)C(F)(F)C(F)(F)C(F)(F)C(F)(F)C(F)(F)C(F)(F)CCI [1-Iodo-1H,1H,2H,2H-perfluorononane]; details: in DMSO
Method: as §1

Perfluoropropanoic acid = compound: O=C(O)C(F)(F)C(F)(F)F [Perfluoropropanoic acid]; details: 2200 nM; in DMSO
Method: as §1

Perfluorooctanamide = compound: NC(=O)C(F)(F)C(F)(F)C(F)(F)C(F)(F)C(F)(F)C(F)(F)C(F)(F)F [Perfluorooctanamide]; details: 2200 nM; in DMSO
Method: as §1

[11] = compound: O=C(O)C(F)(F)C(F)(F)OC(F)(F)F [Perfluoro-3-methoxypropanoic acid]; details: 2200 nM; in DMSO
Method: as §1

[12] = compound: C=CC(=O)OCC(F)(F)C(F)(F)C(F)(F)C(F)(F)COC(=O)C=C [1H,1H,6H,6H-Perfluorohexane-1,6-diol diacrylate]; details: 2200 nM; in DMSO
Method: as §1

[13] = compound: O=P(O)(O)CCC(F)(F)C(F)(F)C(F)(F)C(F)(F)C(F)(F)C(F)(F)C(F)(F)C(F)(F)F [((Perfluorooctyl)ethyl)phosphonic acid]; details: 2200 nM; in DMSO
Method: as §1

Perfluorobutanoic acid = compound: O=C(O)C(F)(F)C(F)(F)C(F)(F)F [Perfluorobutanoic acid]; details: 2200 nM; in DMSO
Method: as §1

[14] = compound: FC(F)(F)C(F)(F)C(F)(F)C(F)(F)C(F)(F)C(F)(F)C(F)(F)I [1-Iodopentadecafluoroheptane]; details: in DMSO
Method: as §1

Test System | level (log10) ([1]; 370 nM) | level (log10) ([1]; 1100 nM) | level (log10) ([1]; 3300 nM) | level (log10) ([1]; 10000 nM) | level (log10) [2] | level (log10) [3] | level (log10) [4] | level (log10) [5] | level (log10) (Perfluoroundecanoic acid; 740 nM) | level (log10) (Perfluoroundecanoic acid; 2200 nM) | level (log10) [6] | level (log10) [7] | level (log10) ([8]; 2200 nM) | level (log10) ([8]; 6700 nM) | level (log10) ([8]; 20000 nM) | level (log10) ([8]; 60000 nM) | level (log10) [9] | level (log10) ([10]; 740 nM) | level (log10) ([10]; 2200 nM) | level (log10) ([10]; 6700 nM) | level (log10) ([10]; 20000 nM) | level (log10) (Perfluoropropanoic acid) | level (log10) (Perfluorooctanamide) | level (log10) [11] | level (log10) [12] | level (log10) [13] | level (log10) (Perfluorobutanoic acid) | level (log10) ([14]; 740 nM) | level (log10) ([14]; 2200 nM) | level (log10) ([14]; 6700 nM) | level (log10) ([14]; 20000 nM)
CASM3C:CXCL8/IL-8 | -0.0135 ± 0.0078 | -0.0025 ± 0.0035 | -0.006 | -0.007 ± 0.064 | 0.0055 ± 0.04 | 0.0365 ± 0.076 | 0.0095 ± 0.0064 | -0.016 | 0.019 ± 0.04 | 0.0075 ± 0.011 | -0.0055 ± 0.023 | 0.0065 ± 0.005 | 0.0215 ± 0.053 | 0.008 ± 0.025 | 0.0025 ± 0.016 | 0.0225 ± 0.0021 | 0.0005 ± 0.0078 | 0.0055 ± 0.00071 | 0.004 ± 0.0042 | 0.004 ± 0.0042 | 0.004 ± 0.0028 | -0.0045 ± 0.03 | 0.0295 ± 0.036 | 0.0315 ± 0.077 | 0.0095 ± 0.0078 | 0.01 ± 0.018 | -0.003 ± 0.016 | 0.0055 ± 0.028 | -0.002 ± 0.016 | -0.0165 ± 0.016 | 0.001 ± 0.017
CASM3C:CXCL9/MIG | 0.0035 ± 0.005 | 0.0005 ± 0.0035 | -0.002 ± 0.0028 | 0.014 ± 0.021 | 0.009 ± 0.037 | 0.023 ± 0.051 | 0.018 ± 0.028 | -0.009 ± 0.071 | -0.01 ± 0.034 | -0.004 ± 0.0071 | 0.028 ± 0.017 | 0.0235 ± 0.032 | 0.0235 ± 0.06 | -0.004 ± 0.0099 | 0.002 ± 0.0057 | 0.027 ± 0.023 | -0.003 ± 0.037 | 0.0125 ± 0.025 | 0.0155 ± 0.0035 | -0.0355 ± 0.025 | -0.057 ± 0.042 | 0.0225 ± 0.033 | 0.014 ± 0.059 | 0.026 ± 0.073 | -0.0025 ± 0.061 | 0.0445 ± 0.056 | 0.0025 ± 0.015 | -0.0075 ± 0.043 | -0.0505 ± 0.056 | -0.0165 ± 0.025 | 0.018 ± 0.018
CASM3C:HLA-DR | 0.014 ± 0.027 | 0.0075 ± 0.016 | 0.0015 ± 0.00071 | 0.0095 ± 0.0035 | 0.004 ± 0.037 | 0.0055 ± 0.061 | 0.019 ± 0.018 | -0.006 ± 0.045 | -0.0055 ± 0.019 | -0.029 ± 0.0028 | -0.002 ± 0.047 | -0.003 ± 0.0071 | 0.016 ± 0.081 | -0.033 ± 0.011 | -0.0465 ± 0.022 | 0.0095 ± 0.044 | -0.014 ± 0.023 | -0.0115 ± 0.022 | -0.0155 ± 0.018 | 0.0055 ± 0.0064 | -0.007 ± 0.0071 | -0.022 ± 0.027 | 0.01 ± 0.0028 | -0.0025 ± 0.054 | 0.0715 ± 0.035 | 0.0315 ± 0.084 | -0.0015 ± 0.005 | -0.012 ± 0.0085 | -0.028 ± 0.0042 | -0.0255 ± 0.023 | 0.008 ± 0.023
CASM3C:IL-6 | 0.0085 ± 0.03 | -0.0065 ± 0.00071 | -0.022 ± 0.025 | 0.005 ± 0.02 | 0.024 ± 0.059 | 0.022 ± 0.1 | 0.0115 ± 0.059 | 0.018 ± 0.065 | -0.0225 ± 0.032 | -0.0165 ± 0.0035 | 0.0025 ± 0.036 | 0.0265 ± 0.053 | 0.0155 ± 0.046 | -0.035 ± 0.011 | -0.0525 ± 0.00071 | 0.001 ± 0.092 | 0.0095 ± 0.06 | 0.0165 ± 0.04 | -0.017 ± 0.0028 | -0.0105 ± 0.013 | 0.0315 ± 0.056 | 0.013 ± 0.0014 | 0.0015 ± 0.0078 | 0.03 ± 0.1 | 0.035 ± 0.1 | 0.0185 ± 0.093 | 0.0125 ± 0.036 | 0.015 ± 0.02 | 0.032 ± 0.013 | -0.0425 ± 0.026 | -0.0035 ± 0.053
CASM3C:LDLR | -0.0045 ± 0.00071 | -0.0055 ± 0.0021 | -0.0095 ± 0.0064 | 0 ± 0.035 | 0.021 ± 0.0042 | 0.039 ± 0.042 | -0.0125 ± 0.0078 | -0.014 ± 0.013 | -0.019 ± 0.024 | 0.0155 ± 0.039 | -0.0075 ± 0.013 | -0.003 ± 0.017 | 0.0145 ± 0.052 | -0.006 ± 0.017 | -0.0045 ± 0.00071 | 0.008 ± 0.017 | 0.0075 ± 0.026 | 0.013 ± 0.014 | 0.0015 ± 0.0021 | -0.016 ± 0.021 | 0.026 ± 0.024 | -0.0155 ± 0.016 | 0.0005 ± 0.015 | 0.0235 ± 0.056 | -0.059 ± 0.033 | 0.031 ± 0.037 | 0.006 ± 0.045 | 0.0275 ± 0.021 | -0.0255 ± 0.021 | -0.002 ± 0.013 | -0.014
CASM3C:M-CSF | 0.007 ± 0.048 | -0.026 ± 0.044 | 0.006 ± 0.031 | 0.017 ± 0.0099 | 0.0235 ± 0.015 | 0.041 ± 0.057 | -0.0125 ± 0.044 | 0.0075 ± 0.026 | 0.001 ± 0.068 | 0.013 ± 0.016 | -0.0025 ± 0.033 | -0.0025 ± 0.0064 | 0.0195 ± 0.037 | -0.0195 ± 0.0078 | -0.0175 ± 0.011 | 0.009 ± 0.034 | -0.0025 ± 0.066 | 0.0065 ± 0.023 | -0.007 ± 0.013 | -0.0035 ± 0.0078 | 0.0125 ± 0.028 | -0.025 ± 0.058 | 0.005 ± 0.0014 | 0.0245 ± 0.043 | 0.0395 ± 0.086 | 0.039 ± 0.034 | 0.011 ± 0.0014 | -0.0165 ± 0.015 | -0.014 ± 0.024 | -0.0285 ± 0.019 | 0.0225 ± 0.052
CASM3C:PAI-I | -0.002 ± 0.0071 | -0.001 ± 0.0071 | -0.0055 ± 0.005 | -0.0005 ± 0.015 | -0.0035 ± 0.0021 | 0.0055 ± 0.025 | 0.005 ± 0.0014 | -0.005 ± 0.0071 | -0.008 ± 0.013 | -0.0185 ± 0.025 | -0.0015 ± 0.018 | 0.009 ± 0.0071 | 0.0115 ± 0.019 | 0.006 ± 0.0028 | 0 ± 0.0057 | 0.012 ± 0.0057 | 0.0145 ± 0.03 | 0.004 ± 0.021 | 0.0085 ± 0.0064 | 0.0015 ± 0.00071 | 0.0035 ± 0.00071 | 0.0065 ± 0.0035 | 0.0085 ± 0.0064 | 0.013 ± 0.028 | 0.004 ± 0.0057 | 0.0165 ± 0.0092 | 0.0035 ± 0.0092 | -0.004 ± 0.0042 | -0.0115 ± 0.011 | -0.013 ± 0.011 | 0.0075 ± 0.011
